PubChem BioAssay AID1224830, NIAID – 2016
Assay: 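Host factors that control LPS-induced TNF expression in human macrophages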 (primary screen). System: human THP-1 monocytic leukaemia cells, TNF dual-luciferase reporter clone, PMA-differentiated to macrophage-like cells. Knock-down reagent: siRNA pool against human genes, 50 nM. Duration: LPS for 4 h, given about 3 days after siRNA transfection. Treatment: bacterial LPS (TLR4 ligand), 10 ng/ml. Detection: 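TNF firefly reporter luminescence divided by renilla, normalised to the plate median, then turned into a robust z-score for each replicate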. Scale: TNF reporter robust z-score: higher = stronger TNF reporter response to LPS. Hit rule: 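Each well counts as active if its z-score is over 2.8 or under -1.5; controls are left without a call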.
The deposit covers about 18,000 reagents; this is a part drawn at random. About 2,900 of them (16%) count as active. 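Calls are made per well; low scores hint the gene aids the LPS response, high scores that it dampens it.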 Repeated entries: four replicate wells of each siRNA pool. No sequences are given here.

gene	TNF reporter robust z-score	Outcome
AMDHD2 (amidohydrolase domain containing 2)	0.83	inactive
AMDHD2 (amidohydrolase domain containing 2)	2.22	inactive
AMDHD2 (amidohydrolase domain containing 2)	3.97	active
AMDHD2 (amidohydrolase domain containing 2)	3.62	active
NRL (neural retina leucine zipper)	-0.24	inactive
NRL (neural retina leucine zipper)	1.4	inactive
NRL (neural retina leucine zipper)	1.16	inactive
NRL (neural retina leucine zipper)	2.08	inactive
MKRN2 (makorin ring finger protein 2)	0.87	inactive
MKRN2 (makorin ring finger protein 2)	-0.26	inactive
MKRN2 (makorin ring finger protein 2)	0.26	inactive
MKRN2 (makorin ring finger protein 2)	2.08	inactive
ANKEF1 (ankyrin repeat and EF-hand domain containing 1)	-0.36	inactive
ANKEF1 (ankyrin repeat and EF-hand domain containing 1)	-0.15	inactive
ANKEF1 (ankyrin repeat and EF-hand domain containing 1)	-0.39	inactive
ANKEF1 (ankyrin repeat and EF-hand domain containing 1)	0.23	inactive
JAML (junction adhesion molecule like)	-1.06	inactive
JAML (junction adhesion molecule like)	-0.56	inactive
JAML (junction adhesion molecule like)	-0.2	inactive
JAML (junction adhesion molecule like)	0.41	inactive
CNPPD1 (cyclin Pas1/PHO80 domain containing 1)	-0.55	inactive
CNPPD1 (cyclin Pas1/PHO80 domain containing 1)	0.27	inactive
CNPPD1 (cyclin Pas1/PHO80 domain containing 1)	-0.84	inactive
CNPPD1 (cyclin Pas1/PHO80 domain containing 1)	0.62	inactive
AGK (acylglycerol kinase)	1.58	inactive
AGK (acylglycerol kinase)	2.9	active
AGK (acylglycerol kinase)	2.94	active
AGK (acylglycerol kinase)	2.63	inactive
HS3ST3B1 (heparan sulfate-glucosamine 3-sulfotransferase 3B1)	-0.82	inactive
HS3ST3B1 (heparan sulfate-glucosamine 3-sulfotransferase 3B1)	-0.28	inactive
HS3ST3B1 (heparan sulfate-glucosamine 3-sulfotransferase 3B1)	-0.42	inactive
HS3ST3B1 (heparan sulfate-glucosamine 3-sulfotransferase 3B1)	-0.98	inactive

Continued, starting with the last 4 of the part before.
gene	TNF reporter robust z-score	Outcome
HS3ST3B1 (heparan sulfate-glucosamine 3-sulfotransferase 3B1)	-0.82	inactive
HS3ST3B1 (heparan sulfate-glucosamine 3-sulfotransferase 3B1)	-0.28	inactive
HS3ST3B1 (heparan sulfate-glucosamine 3-sulfotransferase 3B1)	-0.42	inactive
HS3ST3B1 (heparan sulfate-glucosamine 3-sulfotransferase 3B1)	-0.98	inactive
RFC5 (replication factor C subunit 5)	0.26	inactive
RFC5 (replication factor C subunit 5)	1.17	inactive
RFC5 (replication factor C subunit 5)	0.93	inactive
RFC5 (replication factor C subunit 5)	1.84	inactive
LRRC28 (leucine rich repeat containing 28)	-1.01	inactive
LRRC28 (leucine rich repeat containing 28)	-0.59	inactive
LRRC28 (leucine rich repeat containing 28)	-1.32	inactive
LRRC28 (leucine rich repeat containing 28)	-1.5	inactive
GPR68 (G protein-coupled receptor 68)	-0.57	inactive
GPR68 (G protein-coupled receptor 68)	-0.71	inactive
GPR68 (G protein-coupled receptor 68)	-0.63	inactive
GPR68 (G protein-coupled receptor 68)	-0.55	inactive
ALDH9A1 (aldehyde dehydrogenase 9 family member A1)	-0.75	inactive
ALDH9A1 (aldehyde dehydrogenase 9 family member A1)	-0.78	inactive
ALDH9A1 (aldehyde dehydrogenase 9 family member A1)	-1.29	inactive
ALDH9A1 (aldehyde dehydrogenase 9 family member A1)	-0.36	inactive
ROCK2 (Rho associated coiled-coil containing protein kinase 2)	0.81	inactive
ROCK2 (Rho associated coiled-coil containing protein kinase 2)	0.47	inactive
ROCK2 (Rho associated coiled-coil containing protein kinase 2)	-1.26	inactive
ROCK2 (Rho associated coiled-coil containing protein kinase 2)	-0.7	inactive
POLE2 (DNA polymerase epsilon 2, accessory subunit)	0.51	inactive
POLE2 (DNA polymerase epsilon 2, accessory subunit)	1.4	inactive
POLE2 (DNA polymerase epsilon 2, accessory subunit)	0.26	inactive
POLE2 (DNA polymerase epsilon 2, accessory subunit)	-0.26	inactive
CBLC (Cbl proto-oncogene C)	-0.32	inactive
CBLC (Cbl proto-oncogene C)	5.04	active
CBLC (Cbl proto-oncogene C)	0.61	inactive
CBLC (Cbl proto-oncogene C)	0.38	inactive
DOC2B (double C2 domain beta)	-0.96	inactive
DOC2B (double C2 domain beta)	-0.03	inactive
DOC2B (double C2 domain beta)	-0.2	inactive
DOC2B (double C2 domain beta)	0.17	inactive
WARS1 (tryptophanyl-tRNA synthetase 1)	0.81	inactive
WARS1 (tryptophanyl-tRNA synthetase 1)	2.38	inactive
WARS1 (tryptophanyl-tRNA synthetase 1)	0.17	inactive
WARS1 (tryptophanyl-tRNA synthetase 1)	1.06	inactive
SH3BP2 (SH3 domain binding protein 2)	0.6	inactive
SH3BP2 (SH3 domain binding protein 2)	-1.07	inactive
SH3BP2 (SH3 domain binding protein 2)	-0.93	inactive
SH3BP2 (SH3 domain binding protein 2)	-0.33	inactive
IGSF6 (immunoglobulin superfamily member 6)	9.77	active
IGSF6 (immunoglobulin superfamily member 6)	2.83	active
IGSF6 (immunoglobulin superfamily member 6)	0.69	inactive
IGSF6 (immunoglobulin superfamily member 6)	0.85	inactive
